PubChem BioAssay AID1508588 – Peter MacCallum Cancer Centre – 2020
This is an unselected part of about 18,000 reagents tested. Over the whole deposit, 790 (4.4%) are marked active. 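Calls rest on a combination of fold-change classes in drug and vehicle arms, not all shown here.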

Purpose: 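Knock-downs boosting vemurafenib effects on melanoma cell growth or lactate release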 (primary screen)
System: human WM266.4 melanoma cells (BRAF V600 mutant)
Knock-down reagent: siRNA pool against human genes, 40 nM
Time to read-out: 96 h from transfection to read-out
Conditions: vemurafenib 300 nM (about IC25), added 48 h after transfection, for 48 h; comparison arm got DMSO vehicle only
Measured: 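Cell gain (DAPI nuclei at end minus before drug, mean of two replicates) and medium lactate by absorbance per cell, both as ratio to non-targeting siRNA, also grouped into fold-change classes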
Direction: cell gain with vemurafenib: higher = more cell gain than with non-targeting siRNA; lactate per cell with vemurafenib: higher = more lactate made per cell
Rule for the call: 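a knock-down counts as enhancing when its fold-change classes with vehicle and with vemurafenib, taken together, show a stronger drug effect on cell gain or lactate per cell; exact class pairs not stated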
Calls: active = enhances vemurafenib effect; inactive = no enhancement seen

What did the screen give for MTURN (maturin, neural progenitor differentiation regulator homolog)?
cell gain with vemurafenib: 0.76; lactate per cell with vemurafenib: 0.64; outcome: inactive

With YIPF6 (Yip1 domain family member 6), what was measured?
cell gain with vemurafenib: 0.44; lactate per cell with vemurafenib: 0.15; outcome: active

What is on record for ZNF461 (zinc finger protein 461)?
cell gain with vemurafenib: 0.31; lactate per cell with vemurafenib: 1.23; outcome: inactive

Which result is listed for KDELR3 (KDEL endoplasmic reticulum protein retention receptor 3)?
cell gain with vemurafenib: 0.41; lactate per cell with vemurafenib: 0.57; outcome: inactive

For LSM1 (LSM1 homolog, mRNA degradation associated), how do the results read?
cell gain with vemurafenib: 0.97; lactate per cell with vemurafenib: 0.44; outcome: active

For LRRC63 (leucine rich repeat containing 63), how do the results read?
cell gain with vemurafenib: 0.74; lactate per cell with vemurafenib: 0.7; outcome: inactive

How did the screen score ZNF765 (zinc finger protein 765)?
cell gain with vemurafenib: 1.37; lactate per cell with vemurafenib: 0.74; outcome: inactive

What did the screen give for MAP4K2 (mitogen-activated protein kinase kinase kinase kinase 2)?
cell gain with vemurafenib: 0.48; lactate per cell with vemurafenib: 0.98; outcome: inactive

With HSPB3 (heat shock protein family B (small) member 3), what was measured?
cell gain with vemurafenib: 0.53; lactate per cell with vemurafenib: 1.5; outcome: inactive

What did the screen give for IFT74 (intraflagellar transport 74)?
cell gain with vemurafenib: 0.68; lactate per cell with vemurafenib: 0.58; outcome: inactive

With ADGRL3 (adhesion G protein-coupled receptor L3), what was measured?
cell gain with vemurafenib: 1.06; lactate per cell with vemurafenib: 0.42; outcome: inactive

For OR7G1 (olfactory receptor family 7 subfamily G member 1), what was measured?
cell gain with vemurafenib: 0.86; lactate per cell with vemurafenib: 0.26; outcome: inactive

How did the screen score LINC02910 (long intergenic non-protein coding RNA 2910)?
cell gain with vemurafenib: 0.68; lactate per cell with vemurafenib: 0.79; outcome: inactive

For CIMIP6 (ciliary microtubule inner protein 6), what was measured?
cell gain with vemurafenib: 1.2; lactate per cell with vemurafenib: 0.68; outcome: inactive

With MTUS1 (microtubule associated scaffold protein 1), what does the deposit list?
cell gain with vemurafenib: 0.21; lactate per cell with vemurafenib: 1.29; outcome: inactive

What did the screen give for LBX2 (ladybird homeobox 2)?
cell gain with vemurafenib: 0.93; lactate per cell with vemurafenib: 0.59; outcome: inactive

For SLC5A8, how do the results read?
cell gain with vemurafenib: 0.93; lactate per cell with vemurafenib: 0.78; outcome: inactive

With WIF1 (Wnt inhibitory factor 1), how do the results read?
cell gain with vemurafenib: 0.14; lactate per cell with vemurafenib: 1.64; outcome: inactive

With AJM1 (apical junction component 1 homolog), what does the deposit list?
cell gain with vemurafenib: 0.35; lactate per cell with vemurafenib: 1.2; outcome: inactive

What is on record for MSH4 (mutS homolog 4)?
cell gain with vemurafenib: 0.07; lactate per cell with vemurafenib: 2.2; outcome: inactive

With ALKBH7 (alkB homolog 7, RNA demethylase), how do the results read?
cell gain with vemurafenib: 0.51; lactate per cell with vemurafenib: 0.3; outcome: inactive

With TXLNB (taxilin beta), what was measured?
cell gain with vemurafenib: 0.81; lactate per cell with vemurafenib: 1.02; outcome: inactive

For ADCY3 (adenylate cyclase 3), what does the deposit list?
cell gain with vemurafenib: 0.88; lactate per cell with vemurafenib: 1.04; outcome: inactive

Which result is listed for PTCHD1 (patched domain containing 1)?
cell gain with vemurafenib: 0.23; lactate per cell with vemurafenib: 0.94; outcome: inactive

For GNS (glucosamine (N-acetyl)-6-sulfatase), what does the deposit list?
cell gain with vemurafenib: 0.43; lactate per cell with vemurafenib: 0.66; outcome: inactive

With PPP3CB (protein phosphatase 3 catalytic subunit beta), what does the deposit list?
cell gain with vemurafenib: 0.52; lactate per cell with vemurafenib: 0.88; outcome: inactive

With CAMP (cathelicidin antimicrobial peptide), what does the deposit list?
cell gain with vemurafenib: 0.3; lactate per cell with vemurafenib: 1.08; outcome: inactive

Which result is listed for DNAJC4 (DnaJ heat shock protein family (Hsp40) member C4)?
cell gain with vemurafenib: 0.52; lactate per cell with vemurafenib: 1.12; outcome: inactive

Part of the list above in another layout.
{"gene": "WIF1 (Wnt inhibitory factor 1)", "cell gain with vemurafenib": 0.14, "lactate per cell with vemurafenib": 1.64, "outcome": "inactive"}
{"gene": "AJM1 (apical junction component 1 homolog)", "cell gain with vemurafenib": 0.35, "lactate per cell with vemurafenib": 1.2, "outcome": "inactive"}
{"gene": "MSH4 (mutS homolog 4)", "cell gain with vemurafenib": 0.07, "lactate per cell with vemurafenib": 2.2, "outcome": "inactive"}
{"gene": "ALKBH7 (alkB homolog 7, RNA demethylase)", "cell gain with vemurafenib": 0.51, "lactate per cell with vemurafenib": 0.3, "outcome": "inactive"}
{"gene": "TXLNB (taxilin beta)", "cell gain with vemurafenib": 0.81, "lactate per cell with vemurafenib": 1.02, "outcome": "inactive"}
{"gene": "ADCY3 (adenylate cyclase 3)", "cell gain with vemurafenib": 0.88, "lactate per cell with vemurafenib": 1.04, "outcome": "inactive"}

Additional results:
How did the screen score NAT9 (N-acetyltransferase 9)?
cell gain with vemurafenib: 0.19; lactate per cell with vemurafenib: 0.57; outcome: inactive

For SCARF2 (scavenger receptor class F member 2), how do the results read?
cell gain with vemurafenib: 0.46; lactate per cell with vemurafenib: 0.83; outcome: inactive

With GPR52 (G protein-coupled receptor 52), how do the results read?
cell gain with vemurafenib: 0.86; lactate per cell with vemurafenib: 1.14; outcome: inactive

With MMUT (methylmalonyl-CoA mutase), how do the results read?
cell gain with vemurafenib: 0.91; lactate per cell with vemurafenib: 0.48; outcome: inactive

With EPHB4 (EPH receptor B4), what was measured?
cell gain with vemurafenib: 1.24; lactate per cell with vemurafenib: 0.84; outcome: inactive

Which result is listed for PCDHGB7 (protocadherin gamma subfamily B, 7)?
cell gain with vemurafenib: 0.57; lactate per cell with vemurafenib: 0.99; outcome: inactive

For RPS13 (ribosomal protein S13), how do the results read?
cell gain with vemurafenib: -0.13; lactate per cell with vemurafenib: -0.32; outcome: inactive

For PRKAG1 (protein kinase AMP-activated non-catalytic subunit gamma 1), how do the results read?
cell gain with vemurafenib: 0.6; lactate per cell with vemurafenib: 1.03; outcome: inactive

For ORC2 (origin recognition complex subunit 2), how do the results read?
cell gain with vemurafenib: 0.26; lactate per cell with vemurafenib: 1.38; outcome: inactive

For IFIT1 (interferon induced protein with tetratricopeptide repeats 1), what does the deposit list?
cell gain with vemurafenib: 0.85; lactate per cell with vemurafenib: 0.48; outcome: active

Which result is listed for C10orf120 (chromosome 10 open reading frame 120)?
cell gain with vemurafenib: 0.14; lactate per cell with vemurafenib: 0.42; outcome: active

What did the screen give for OR10H1 (olfactory receptor family 10 subfamily H member 1)?
cell gain with vemurafenib: 0.5; lactate per cell with vemurafenib: 1.18; outcome: inactive

What is on record for ADHFE1 (alcohol dehydrogenase iron containing 1)?
cell gain with vemurafenib: 1.01; lactate per cell with vemurafenib: 0.78; outcome: inactive

With CACUL1 (CDK2 associated cullin domain 1), how do the results read?
cell gain with vemurafenib: 1.02; lactate per cell with vemurafenib: 0.67; outcome: inactive

With GUCA1A (guanylate cyclase activator 1A), what was measured?
cell gain with vemurafenib: 0.74; lactate per cell with vemurafenib: 1.12; outcome: inactive

With S100Z (S100 calcium binding protein Z), what does the deposit list?
cell gain with vemurafenib: 0.58; lactate per cell with vemurafenib: 0.86; outcome: inactive

For HSD17B6 (hydroxysteroid 17-beta dehydrogenase 6), how do the results read?
cell gain with vemurafenib: 0.62; lactate per cell with vemurafenib: 0.88; outcome: inactive

For EZH1 (enhancer of zeste 1 polycomb repressive complex 2 subunit), what does the deposit list?
cell gain with vemurafenib: 0.36; lactate per cell with vemurafenib: 1.84; outcome: inactive

For SLITRK6 (SLIT and NTRK like family member 6), what does the deposit list?
cell gain with vemurafenib: 0.88; lactate per cell with vemurafenib: 0.88; outcome: inactive

With HIVEP1 (HIVEP zinc finger 1), what was measured?
cell gain with vemurafenib: 0.98; lactate per cell with vemurafenib: 1.13; outcome: inactive

For PLXNA3 (plexin A3), what does the deposit list?
cell gain with vemurafenib: 0.77; lactate per cell with vemurafenib: 0.71; outcome: inactive

For KRT73 (keratin 73), what was measured?
cell gain with vemurafenib: 0.38; lactate per cell with vemurafenib: 0.78; outcome: inactive

Which result is listed for PEBP4 (phosphatidylethanolamine binding protein 4)?
cell gain with vemurafenib: 0.4; lactate per cell with vemurafenib: 0.92; outcome: inactive

For HDLBP (high density lipoprotein binding protein), what was measured?
cell gain with vemurafenib: 0.71; lactate per cell with vemurafenib: 0.7; outcome: inactive
